Experimental data as given in ChEMBL document CHEMBL4303122, “Identification of potential treatments for COVID-19 through artificial intelligence-enabled phenomic analysis of human cells infected with SARS-CoV-2” (2020).
Whole data set: some 1,600 compounds, median “Hit score” near 0.13, cut for the highest 2% near 0.46. This is one part of the list.

system: SARS-CoV-2; test: Antiviral activity against SARS-CoV-2 (USA-WA1/2020 strain) measured by imaging in HRCE cells at MOI 0.4 after 96 hrs (reported as hit score from 0-1 for on-disease vs off-disease activity: scores >0.6 considered hits); format: functional, Homo sapiens

Row | SMILES | Hit score
1 | CC[C@H]1OC(=O)[C@H](C)[C@@H](O[C@H]2C[C@@](C)(OC)[C@@H](O)[C@H](C)O2)[C@H](C)[C@@H](O[C@@H]2O[C@H](C)C[C@H](N(C)C)[C@H]2O)[C@](C)(O)C[C@@H](C)[C@@H]2N[C@@H](COCCOC)O[C@H]([C@H]2C)[C@]1(C)O [DIRITHROMYCIN] | 0.05651
2 | CCCc1cc(C(N)=S)ccn1 [PROTIONAMIDE] | 0.1497
3 | CO[C@H]1/C=C/O[C@@]2(C)Oc3c(C)c(O)c4c(O)c(c(/C=N/N5CCN(C6CCCC6)CC5)c(O)c4c3C2=O)NC(=O)/C(C)=C\C=C\[C@H](C)[C@H](O)[C@@H](C)[C@@H](O)[C@@H](C)[C@H](OC(C)=O)[C@@H]1C [RIFAPENTINE] | 0.1445
4 | Cn1c(=O)c2nc[nH]c2n(C)c1=O.O [THEOPHYLLINE] | 0.2338
5 | CC1=C(C)C(=O)C(CCCCCCCCCC[P+](c2ccccc2)(c2ccccc2)c2ccccc2)=CC1=O | 0.06177
6 | COC(=O)[C@H]1[C@H]2C[C@@H]3c4[nH]c5cc(OC)ccc5c4CCN3C[C@H]2C[C@@H](OC(=O)c2cc(OC)c(OC)c(OC)c2)[C@@H]1OC [RESERPINE] | 0.08143
7 | CNC1CCCN(c2c(F)cc3c(=O)c(C(=O)O)cn(C4CC4)c3c2OC)C1 (configuration not stated) [BALOFLOXACIN] | 0.2575
8 | O=P1(NCCCl)OCCCN1CCCl (configuration not stated) [IFOSFAMIDE] | 0.08977
9 | CN1CCN(CC/C=C2/c3ccccc3Sc3ccc(S(=O)(=O)N(C)C)cc32)CC1 [THIOTHIXENE] | 0.03687
10 | CC(C)(CO)[C@@H](O)C(=O)NCCC(=O)NCCSSCCNC(=O)CCNC(=O)[C@H](O)C(C)(C)CO [PANTETHINE] | 0.0893
11 | C=CCN1CC[C@]23c4c5ccc(O)c4O[C@H]2[C@@H](OCCOCCOCCOCCOCCOCCOCCOC)CC[C@@]3(O)[C@H]1C5 [NALOXEGOL] | 0.106
12 | Cc1cn[nH]c1 [FOMEPIZOLE] | 0.2114
13 | NC(=O)CN1CCCC1=O | 0.2052
14 | CC[N+](C)(C)c1cccc(O)c1 [EDROPHONIUM] | 0.0571
15 | N=C1CCCN1Cc1[nH]c(=O)[nH]c(=O)c1Cl | 0.09228
16 | CN(C)c1cc(NC(=O)CNC(C)(C)C)c(O)c2c1C[C@H]1C[C@H]3[C@H](N(C)C)C(O)=C(C(N)=O)C(=O)[C@@]3(O)C(O)=C1C2=O [TIGECYCLINE] | 0.1712
17 | C[C@@H](NCCCc1cccc(C(F)(F)F)c1)c1cccc2ccccc12 | -0.07555
18 | CC(=O)Nc1cccc(-n2c(=O)n(C3CC3)c(=O)c3c(Nc4ccc(I)cc4F)n(C)c(=O)c(C)c32)c1 [TRAMETINIB] | -0.4857
19 | CCCOc1cc(N)ccc1C(=O)OCCN(CC)CC [PROPOXYCAINE] | 0.0698
20 | OC(Cn1cncn1)(Cn1cncn1)c1ccc(F)cc1F [FLUCONAZOLE] | 0.1493
21 | CCOC(=O)Nc1ccc2c(c1)N(C(=O)CCN(CC)CC)c1ccccc1S2 [ETHACIZINE] | 0.2302
22 | CCN[C@H]1CN(CCCOC)S(=O)(=O)c2sc(S(N)(=O)=O)cc21 [BRINZOLAMIDE] | 0.2322
23 | CC(C)c1c(C(=O)Nc2ccccc2)c(-c2ccccc2)c(-c2ccc(F)cc2)n1CC[C@@H](O)C[C@@H](O)CC(=O)O [ATORVASTATIN] | 0.08829

Row | SMILES | Hit score
24 | Cc1ncc(C[n+]2csc(CCO)c2C)c(N)n1 [THIAMINE ION] | 0.2886
25 | NS(=O)(=O)c1cc(C2(O)NC(=O)c3ccccc32)ccc1Cl (configuration not stated) [CHLORTHALIDONE] | 0.1518
26 | O=C(O)CCCCCCCC(=O)O [AZELAIC ACID] | 0.004337
27 | Clc1ccc2c(N3CCN(CCCN4CCN(c5ccnc6cc(Cl)ccc56)CC4)CC3)ccnc2c1.O=P(O)(O)O [PIPERAQUINE PHOSPHATE] | 0.02101
28 | Cc1ccc(C(=O)c2ccc(CC(=O)O)n2C)cc1 [TOLMETIN] | 0.1977
29 | CC(=O)O[C@H]1C[C@@H]2CC[C@@H]3[C@H](CC[C@@]4(C)[C@H]3C[C@H](N3CC[N+](C)(C)CC3)[C@@H]4OC(C)=O)[C@@]2(C)C[C@@H]1N1CC[N+](C)(C)CC1 [PIPECURONIUM] | 0.1412
30 | CCCCN(CCCC)CCCOC(=O)c1ccc(N)cc1 [BUTACAINE] | 0.05399
31 | CC1(C)C(/C=C/C=C/C=C/C=C2\N(CCCCS(=O)(=O)[O-])c3ccc4ccccc4c3C2(C)C)=[N+](CCCCS(=O)(=O)[O-])c2ccc3ccccc3c21.[Na+] [INDOCYANINE GREEN] | 0.2338
32 | CN(C)CCCN1c2ccccc2Sc2ccc(C(F)(F)F)cc21 [TRIFLUPROMAZINE] | -0.07276
33 | Nc1c(CC(=O)O)cccc1C(=O)c1ccccc1 [AMFENAC] | 0.1058
34 | COc1ccc([C@@H]2CC(=O)c3c(O)cc(O)cc3O2)cc1O [HESPERETIN] | 0.1002
35 | Cc1cc(-c2ccc(/N=N/c3ccc4c(S(=O)(=O)[O-])cc(S(=O)(=O)[O-])c(N)c4c3O)c(C)c2)ccc1/N=N/c1ccc2c(S(=O)(=O)[O-])cc(S(=O)(=O)[O-])c(N)c2c1O.[Na+].[Na+].[Na+].[Na+] [EVANS BLUE] | 0.2486
36 | CCOC(=O)c1cc(C#N)c(N2CCC(C(=O)NS(=O)(=O)Cc3ccccc3)CC2)nc1C | 0.3229
37 | CC(N/C(=N\C#N)Nc1ccncc1)C(C)(C)C (configuration not stated) [PINACIDIL ANHYDROUS] | 0.1708
38 | CC1(C)OC(=O)C(OCC2CC2)=C1c1ccc(S(C)(=O)=O)cc1 [FIROCOXIB] | 0.09893
39 | CCN(CC)CCOC(=O)C1(C2CCCCC2)CCCCC1 [DICYCLOMINE] | 0.1568
40 | CCCCOCCOCCOCc1cc2c(cc1CCC)OCO2 [PIPERONYL BUTOXIDE] | 0.1894
41 | C[N+]1(C)[C@@H]2CC[C@H]1C[C@@H](OC(=O)C(O)c1ccccc1)C2.[Br-] (some centres not stated) [HOMATROPINE METHYLBROMIDE] | 0.03421
42 | CC(=O)Oc1ccccc1C(=O)Nc1ncc([N+](=O)[O-])s1 [NITAZOXANIDE] | 0.4584
43 | Cl.Cl.c1ccc(C(NCCNC(c2ccccc2)c2ccccc2)c2ccccc2)cc1 | -0.03001
44 | O=C(Nc1ccc(Cl)cc1)Nc1ccc(Cl)c(Cl)c1 [TRICLOCARBAN] | 0.4616
45 | CC[N+](C)(CC)CCOC(=O)C(O)(c1ccccc1)C1CCCCC1 (configuration not stated) [OXYPHENONIUM] | 0.1874
46 | COc1cc(C(=O)OCCCN2CCCN(CCCOC(=O)c3cc(OC)c(OC)c(OC)c3)CC2)cc(OC)c1OC [DILAZEP] | 0.1035

Part of the list above, as labelled records:
Nc1c(CC(=O)O)cccc1C(=O)c1ccccc1 [AMFENAC]
  Hit score: 0.1058
COc1ccc([C@@H]2CC(=O)c3c(O)cc(O)cc3O2)cc1O [HESPERETIN]
  Hit score: 0.1002
Cc1cc(-c2ccc(/N=N/c3ccc4c(S(=O)(=O)[O-])cc(S(=O)(=O)[O-])c(N)c4c3O)c(C)c2)ccc1/N=N/c1ccc2c(S(=O)(=O)[O-])cc(S(=O)(=O)[O-])c(N)c2c1O.[Na+].[Na+].[Na+].[Na+] [EVANS BLUE]
  Hit score: 0.2486
CCOC(=O)c1cc(C#N)c(N2CCC(C(=O)NS(=O)(=O)Cc3ccccc3)CC2)nc1C
  Hit score: 0.3229

Remaining list, next part

Row | SMILES | Hit score
47 | O=C(O)c1cn(-c2ccc(F)cc2)c2cc(N3CCNCC3)c(F)cc2c1=O [SARAFLOXACIN] | 0.1378
48 | O=C(O)Cc1ccc(-c2ccccc2)cc1 [FELBINAC] | 0.2446
49 | O=C(NC[C@H]1CN(c2ccc(N3CCOCC3=O)cc2)C(=O)O1)c1ccc(Cl)s1 [RIVAROXABAN] | 0.01318
50 | Cc1nnc(C(=O)NC(C)(C)c2nc(C(=O)NCc3ccc(F)cc3)c(O)c(=O)n2C)o1 | 0.0199
51 | CCCC(=O)O[C@]1(C(=O)COC(C)=O)CC[C@H]2[C@@H]3C[C@H](F)C4=CC(=O)C=C[C@]4(C)[C@@]3(F)[C@@H](O)C[C@@]21C [DIFLUPREDNATE] | 0.1389
52 | CN1CCN(C2=Nc3ccccc3Oc3ccc(Cl)cc32)CC1 [LOXAPINE] | 0.2116
53 | COc1c2occc2cc2ccc(=O)oc12 [METHOXSALEN] | 0.1698
54 | N=C(NCCCCCCNC(=N)NC(=N)Nc1ccc(Cl)cc1)NC(=N)Nc1ccc(Cl)cc1 [CHLORHEXIDINE] | 0.08739
55 | N#Cc1ccc(C(c2ccc(C#N)cc2)n2cncn2)cc1 [LETROZOLE] | 0.07947
56 | C[C@H]1[C@H](OC(=O)CCC(=O)O)O[C@@H]2O[C@@]3(C)CC[C@H]4[C@H](C)CC[C@@H]1[C@@]24OO3 [ARTESUNATE] | 0.2142
57 | COc1cc(C(=O)N2CCOCC2)cc(OC)c1OC [TRIMETOZINE] | 0.2022
58 | O=C(O)COc1nn(Cc2ccccc2)c2ccccc12 [BENDAZAC] | 0.1415
59 | O=C(O)COc1cccc(-c2ocnc2-c2nc(-c3ccccc3)c(-c3ccccc3)o2)c1 | 0.03267
60 | O=[N+]([O-])/N=C1\NCCN1Cc1ccc(Cl)nc1 [IMIDACLOPRID] | 0.158
61 | CCc1nc(C(N)=O)c(Nc2ccc(N3CCC(N4CCN(C)CC4)CC3)c(OC)c2)nc1NC1CCOCC1 [GILTERITINIB] | 0.351
62 | O=C(O)c1ccccc1NCCc1ccccc1 [ENFENAMIC ACID] | 0.2813
63 | COc1cc2nc(N3CCN(C(=O)C4CCCO4)CC3)nc(N)c2cc1OC (configuration not stated) [TERAZOSIN] | 0.09742
64 | Nc1ccc(S(=O)(=O)Nc2ccc(Cl)nn2)cc1 [SULFACHLORPYRIDAZINE] | 0.07178
65 | CC(C)OC(=O)CCC/C=C\C[C@@H]1[C@@H](CC[C@@H](O)CCc2ccccc2)[C@H](O)C[C@@H]1O [LATANOPROST] | 0.04489
66 | COc1cc(C)c(/C=C/C(C)=C/C=C/C(C)=C/C(=O)O)c(C)c1C [ACITRETIN] | 0.457
67 | CN(C)CCC=C1c2ccccc2C=Cc2ccccc21 [CYCLOBENZAPRINE] | -0.007076
